In patent publication US20230357793A1:
Results are given in words; binding and its absence hold for the method and conditions named. Some results given as binding are weak or reduced against the parent protein; the word gives no strength.

Protein sequences, listed by entry. Tags and fused reporters are not part of them. Residues count along the entry.
UniProt Q15116, residues 25-288: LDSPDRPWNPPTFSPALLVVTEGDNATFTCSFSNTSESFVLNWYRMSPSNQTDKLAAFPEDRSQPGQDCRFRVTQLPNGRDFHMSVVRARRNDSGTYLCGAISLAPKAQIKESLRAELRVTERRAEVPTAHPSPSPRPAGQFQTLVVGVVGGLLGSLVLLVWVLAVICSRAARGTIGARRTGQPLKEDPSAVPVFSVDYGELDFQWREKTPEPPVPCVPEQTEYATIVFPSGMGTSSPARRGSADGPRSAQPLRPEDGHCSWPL

Molecular target: PD-1 on Jurkat T cells of the PD-1/PD-L1 blockade bioassay (Promega) (UniProt Q15116)
Test: titration 5 to 0.02 µg/ml in the PD-1/PD-L1 blockade bioassay (reporter cells)

B1: anti-PD-1 IgG antibody BB9 (antibody, V domains shown)
VH: QVQLVQSGAEVKKPGASVKVSCKASGFRLTTNGISWVRQAPGQGLEWMGWISAGGGPTNYAQKLQGRVTMTTDTSTSTAYMELRSLRSDDTAVYYCAKGLYGTKDAWGQGTLVTVSS
VL: QSVLTQPPSVSEVPGQRVTISCSGGGSNIGSNAVNWYQHFPGKAPKLLIYYNDLLPSGVSDRFSASKSGTSASLAISGLRSEDEADYYCAAWDDNLSAYVFATGTKVTVL
  binding: binds
